Reference: patent US20200095296A1, “USE OF PEPTIDES AS BIOMARKERS IN THE DIAGNOSIS, CONFIRMATION AND TREATMENT OF A NEUROLOGICAL DISORDER AND TCR AND/OR HLA IMMUNOPROFILING IN NEURODEGENERATIVE DISEASE” (THE TRUSTEES OF COLUMBIA UNIVERSITY IN THE CITY OF NEW YORK, priority 2017, published 2020)
No constants are given. Whether binding was seen depends on the method and setting. Some entries that bind do so weakly or less than the wild type.

Target: HLA A*11:01 (human)
Experiment: competition with radiolabeled peptide, purified HLA A*11:01

binding: binds
B1: alpha-syn peptide aa37…aa45 (peptide)
peptide: VLYVGSKTK
